Here are results for one compound from paper PMC6473174, “Ranking Hits From Saturation Transfer Difference Nuclear Magnetic Resonance–Based Fragment Screening” (Frontiers in Chemistry, 2019).

In this assay the target is T1, murine langerin (Mus musculus, UniProt Q8VBX4).
T1 sequence (Q8VBX4 1-331): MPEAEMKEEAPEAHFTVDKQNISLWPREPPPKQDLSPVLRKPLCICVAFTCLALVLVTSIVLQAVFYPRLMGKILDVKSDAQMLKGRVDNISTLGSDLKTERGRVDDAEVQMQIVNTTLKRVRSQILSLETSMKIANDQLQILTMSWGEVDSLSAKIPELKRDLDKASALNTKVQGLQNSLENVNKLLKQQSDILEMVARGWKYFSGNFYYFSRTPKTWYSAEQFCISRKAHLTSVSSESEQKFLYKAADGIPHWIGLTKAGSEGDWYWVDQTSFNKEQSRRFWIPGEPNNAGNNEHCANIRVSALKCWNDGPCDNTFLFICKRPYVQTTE
As to the kind of experiment: STD NMR measurements (fragment screening and epitope mapping), STD amplification factor. Type of assay: binding. Particulars: Figure 1a fragment screening; [P] = 10 μM, [L] = 0.2 mM, tsat = 4 s. As for the experimental part: STD NMR experiments were performed as described elsewhere (Aretz et al., [2018]). Briefly, 10 μM murine langerin was screened against a library of 660 fragments at a ligand concentration [L] = 0.2 mM using a saturation time of tsat = 4 s. Hits were counter-screened by SPR (see the section Estimation of Affinity Using Surface Plasmon Resonance), enabling affinity estimation and hit validation. For SPR-validated hits, the STD amplification factor was determined as reported earlier (Mayer and Meyer, [2001]) and plotted against affinity (Figure 1A). For epitope mapping of thiazolopyrimidine derivatives (Figure 2E), protein concentration was [P] = 20 μM, ligand concentration was [L] = 0.5–1 mM, and tsat = 1 s. Affinity of all derivatives was estimated by SPR (see the section Estimation of Affinity Using Surface Plasmon Resonance), and the STD amplification factor was determined as reported earlier for the proton in the 7-position of the thiazolopyrimidine scaffold (Mayer and Meyer, [2001]). Spectra were analyzed in MestReNova 10.0.0.

`COC(=O)c1ccc(NC(C)=O)cc1O` [S9] registered an STD amplification factor of 31.
